The test in a line: IkB Signaling. The following applies: ABC-DLBCL IkBa-CBG/CBR dual luciferase ratio (green luciferase fused to IkBa over red control in OCI-Ly3 lymphoma cells), 4 h. An outline of the steps:
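Luminescence ratio of IκBα-fused green versus native red beetle luciferase in OCI-Ly3 cells, 4 h post-doxycycline with compound; red signal alone, scaled from basal (0%) to zero light (-100%), flagged nonspecific or cytotoxic effects.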

Where [1] appears, read: measured here: control luc red channel unless noted.
Where [2] appears, read: measured here: IkB-luc green channel.
[3] abbreviates: measured here: control luc red channel.

The AC50 is the concentration giving half of the maximal activity seen.

The structures appear in SMILES notation. Some of the results follow. Further columns of the screen follow, without active or inactive calls. The list favours compounds with an active or inconclusive main result. The note in brackets gives the kind of curve behind each potency; many fits are weak.

As to `COc1ccc(-c2noc(CSc3nnc(-c4ccc(Cl)cc4)n3C)n2)cc1OC`, the concentration at half-maximal activity (AC50) under setting [1] is 39.8 µM [falling, single point].
On to `Cc1ccc(Cl)cc1NC(=O)CSc1nc(C)c(C)c(C)c1C#N`, for which, under setting [1], the AC50 was 6.31 µM [rising, partial curve].
Regarding `CCOC(=O)c1cnc2c(C(F)(F)F)cccc2c1Nc1cccc(C(=O)OC)c1`, the AC50 under setting [1] was 12.6 µM [falling, partial curve].
Same read-out and setting: for `O=C(c1cc(-c2ccccc2)on1)N1CCN(Cc2ccc3c(c2)OCO3)CC1` the value was 12.6 µM [falling, partial curve]; for `CN1CCN(C(=O)Nc2cccc(Cl)c2)c2cccnc21`, 5.01 µM [rising, partial curve].
`Cc1ccc(CNC(=O)C2CCCN(S(=O)(=O)c3ccc4c(ccn4C)c3)C2)cc1` (centres undefined): the AC50 under setting [1] was 31.6 µM [falling, partial curve].
Same read-out and setting: the value for `CCc1ccc(CNC(=O)C2CCN(C(=O)N3CC(CC)Oc4ccc(C)cc43)CC2)cc1` (centres undefined) was 10 µM [falling, partial curve]; that for `O=c1[nH]c(NCCO)nc2c1C1(CCCCC1)Cc1ccccc1-2` was 31.6 µM [falling, single point]; that for `O=C(NC1CCCC1)c1ccc2c(c1)N(Cc1ccccc1Cl)C(=O)c1ccccc1S2` was 5.01 µM [falling, partial curve].
With `Cc1cc(C)c(NC(=O)CSc2ncc(S(=O)(=O)c3ccc(C(C)(C)C)cc3)c(=O)[nH]2)c(C)c1`, the AC50 under setting [1] is 0.251 µM [falling, full curve, poor fit].
Take `Cc1ccc(OCc2nc(-c3ccc(C(=O)NCCc4ccc(S(N)(=O)=O)cc4)cc3)oc2C)cc1`: the concentration at half-maximal activity (AC50) under setting [1] is 31.6 µM [rising, single point].
As to `COC(=O)c1c(NC(=O)CCCOc2ccccc2C)sc2c1CCC(C)C2` (centres undefined), the AC50 under setting [1] was 15.8 µM [falling, single point].
For `O=C(Cc1cccs1)Nc1nc2c(s1)CCCC2`, under setting [1], the concentration at half-maximal activity (AC50) was 12.6 µM [falling, partial curve].
As to `O=C(Nc1ccc2nc(SCC(=O)N3CCCC3)sc2c1)c1ccccc1F`, the AC50 under setting [1] is 25.1 µM [falling, single point].
With `COc1ccc(CNC(=O)c2c(Nc3ccccc3C)sc(C(=O)c3ccccc3)c2N)cc1`, the AC50 under setting [1] is 5.01 µM [falling, partial curve].
On the same count and under the same terms, for `CC1CN(C(=O)N2CCC(C(=O)NCc3ccco3)CC2)c2cc(Cl)ccc2O1` (centres undefined) the value was 39.8 µM [falling, single point].
As for `COc1ccc(NC(=O)c2cc(-c3ccccc3O)no2)cc1`, the AC50 under setting [1] is 20 µM [falling, partial curve].
As to `O=C(CSc1nc(-c2cccs2)nc2cc(=O)[nH]n12)Nc1ccc(F)cc1`, the concentration at half-maximal activity (AC50) under setting [1] is 20 µM [falling, partial curve, poor fit].
For `CCOc1ccc(NC(=O)CNS(=O)(=O)c2ccc(Br)s2)cc1`, the AC50 under setting [1] is 12.6 µM [falling, partial curve].
The same measure, in the same setting: for `CCOC(=O)c1sc2ccccc2c1S(=O)(=O)N1CCN(c2ccccc2)CC1` the value was 1.26 µM [rising, full curve, poor fit]; for `CCOC(=O)CSc1nc2ccc(NC(=O)c3ccccc3)cc2s1`, 31.6 µM [falling, single point].
As to `CCOC(=O)Cn1c(=O)oc2cc(S(=O)(=O)Nc3ccc(N(CC)CC)cc3C)ccc21`, the AC50 under setting [2] was 6.31 µM [falling, single point] and the AC50 under setting [3] was 6.31 µM [falling, partial curve].
On to `Cc1ccc(C)c(N2CCN(Cc3nnc(-c4ccccc4)o3)CC2)c1`, for which the AC50 under setting [1] was 39.8 µM [falling, single point].
`O=C(CSc1n[nH]c(-c2ccncc2)n1)c1ccccc1`: the AC50 is 31.6 µM [rising, single point] under setting [2] and 20 µM [falling, partial curve] under setting [3].
`COC(=O)c1ccccc1NC(=O)CSc1nc2c(c(=O)n(C)c(=O)n2C)n1C`: the half-maximal activity concentration (AC50) under setting [1] is 0.1 µM [rising, full curve].
Consider `Cc1ccc2cccc(NC(=O)C(C)(C)Oc3ccc(Br)cc3)c2n1`, for which the concentration at half-maximal activity (AC50) under setting [1] is 3.16 µM [rising, full curve, poor fit].
For `CCCS(=O)(=O)Nc1cc2c(cc1NCc1ccccc1)n(C)c(=O)n2C`, the concentration at half-maximal activity (AC50) under setting [1] was 31.6 µM [rising, single point] [measured here: IkB-luc green channel].
For `CCOC(=O)c1ccccc1NC(=O)Cn1c2ncccc2c(=O)n1-c1ccccc1`, the half-maximal activity concentration (AC50) under setting [1] was 0.0794 µM [rising, full curve, poor fit].
As to `Cc1ccc(-c2[nH]nc3c2C(c2ccoc2)C(C#N)=C(N)O3)cc1C` (centres undefined), the AC50 under setting [1] was 15.8 µM [falling, partial curve].
Consider `COc1ccc(-n2c(Cc3cccn3C)nnc2SCC(=O)Nc2ccc(Cl)cc2)cc1`, for which, under setting [1], the AC50 is 15.8 µM [falling, partial curve].
Consider `Cc1nc2c(C(=O)NC(C)c3ccccc3)cnn2c(C)c1Cc1ccccc1` (centres undefined), for which the concentration at half-maximal activity (AC50) under setting [1] is 31.6 µM [falling, single point].
With `COC(=O)c1cc2occc2n1Cc1nc(-c2ccc(C)cc2)oc1C`, the AC50 under setting [1] is 31.6 µM [falling, single point].
As to `CCC(=O)Nc1nnc(S(=O)(=O)N2CCc3ccccc32)s1`, the AC50 under setting [1] was 39.8 µM [falling, single point].
On to `CSc1ccc(C2Nc3ccccc3-c3cc(C)nn32)cc1` (centres undefined), for which the half-maximal activity concentration (AC50) under setting [1] was 39.8 µM [falling, single point].
`Cc1cc(C(=O)COc2nncc3ccccc23)c(C)n1C`: the concentration at half-maximal activity (AC50) under setting [1] is 25.1 µM [rising, partial curve] [measured here: IkB-luc green channel].
On to `Cc1cccc(NC(=O)c2cc(S(=O)(=O)N3CCC4(CC3)OCCO4)ccc2F)c1`, for which the AC50 under setting [1] was 15.8 µM [falling, partial curve].
The same measure, in the same setting: for `COc1ccc(N2CC(NC(=O)c3ccc(S(=O)(=O)N4CCCCC4)cc3)CC2=O)cc1OC` (centres undefined) the value was 6.31 µM [rising, single point] [measured here: IkB-luc green channel]; for `COc1cc(OC)cc(-c2nc3nc(C)c(CCC(=O)Nc4cc(F)ccc4F)c(C)n3n2)c1`, 15.8 µM [falling, partial curve]; for `CCOC(=O)c1ccc(NC(=O)Cn2cc(C(=O)c3ccc(Cl)cc3)c(=O)c3ccc(C)nc32)cc1`, 12.6 µM [falling, partial curve].
With `COc1ccc2oc(-c3ccc(C)c(NC(=O)Cc4ccc(Cl)cc4)c3)nc2c1`, the half-maximal activity concentration (AC50) under setting [1] is 12.6 µM [falling, partial curve].
On to `CCOc1cccc(C(=O)Nc2cccc(-c3nnc(-c4ccccc4)o3)c2)c1`, for which the AC50 under setting [1] is 2.51 µM [falling, full curve, poor fit].
The same measure, in the same setting: the value for `Cc1nc2cc(-c3ccccc3)nn2c(C)c1CCC(=O)N1CCN(c2ccccc2)CC1` was 3.16 µM [falling, partial curve]; that for `O=C(NCCc1csc(-c2ccc(F)cc2)n1)c1ccc(Br)o1` was 20 µM [falling, partial curve]; that for `Cc1ccccc1CN1CCN(CC(=O)NCc2ccccc2Cl)C1=O` was 10 µM [falling, partial curve].
Still for that read-out and setting: the value for `Cc1nc(C)c(C(=O)Nc2cccc(Cl)c2)o1` was 12.6 µM [falling, partial curve]; that for `Fc1ccc2c(c1)NC(c1ccncc1)=NC(c1cccs1)=N2` was 20 µM [falling, partial curve].
For `Cc1oc(-c2nc3ccccc3n2C)cc1C(=O)c1ccccc1`, under setting [1], the AC50 is 12.6 µM [falling, partial curve].
Same read-out and setting: for `COc1ccc(NC(=O)c2ccc(COc3ccccc3OC)o2)cc1OC` the value was 12.6 µM [falling, partial curve]; for `CCn1cc(C(=O)NCc2ccccc2)c(=O)c2cc(S(=O)(=O)N3CCCCCC3)ccc21`, 7.94 µM [falling, full curve]; for `COc1ccc(Br)cc1CNC(=O)C1CCCCN1S(=O)(=O)c1ccc(F)cc1` (centres undefined), 31.6 µM [falling, partial curve].
`Cc1ccc(OCc2nc3ccccc3n2Cc2ccccc2Cl)cc1`: the AC50 under setting [1] was 31.6 µM [falling, single point].
Consider `COc1cccc(OCC(=O)N(Cc2nc(-c3ccc(Cl)cc3)no2)C(C)C)c1`, for which the AC50 under setting [1] is 15.8 µM [falling, partial curve].
Take `O=C(Cc1ccccc1)Nc1c(C(=O)Nc2ccccc2F)oc2ccccc12`: the AC50 under setting [1] was 1.58 µM [falling, full curve].
On the same count and under the same terms, the value for `CCOc1ccc(-c2cc(CCCC(=O)N3CCN(c4ccc(OC)cc4)CC3)no2)cc1` was 6.31 µM [falling, partial curve].
For `O=C(Cn1ncc2c(=O)oc3ccccc3c21)NCc1ccc(Cl)cc1`, the AC50 under setting [1] was 2.51 µM [falling, full curve, poor fit].
The same measure, in the same setting: the value for `O=C(NCCCN1CCN(c2ccccc2F)CC1)c1nnc(Cc2ccc(Cl)cc2Cl)o1` was 39.8 µM [falling, single point]; that for `CCOC(=O)c1c(NC(=O)COc2ccc(F)cc2)sc2c1CCC(C)C2` (centres undefined) was 12.6 µM [falling, partial curve, poor fit]; that for `N#C/C(=C\c1ccc(-c2cc(Cl)ccc2Cl)o1)C(=O)Nc1ccccc1C(=O)O` was 1.58 µM [falling, full curve].
The same measure, in the same setting: for `O=C(CSc1nc2ccccc2n1Cc1ccccc1Cl)NCc1ccccc1` the value was 20 µM [falling, partial curve]; for `COc1ccccc1CC(=O)N1CCN(c2cccc(C(F)(F)F)c2)CC1`, 10 µM [falling, partial curve]; for `CCOC(=O)c1[nH]cnc1C(=O)Nc1ccc(F)cc1`, 15.8 µM [rising, partial curve].
In the case of `Cc1cc(C)c(Cn2c(C(O)c3ccccc3)nc3ccccc32)c(C)c1` (centres undefined), the half-maximal activity concentration (AC50) under setting [1] was 15.8 µM [falling, single point].

Source of the values: PubChem BioAssay AID445 (National Center for Advancing Translational Sciences (NCATS), 2006).
